Data: publication doi:10.1101/2022.11.01.514535
Results are given in words; binding and its absence hold for the method and conditions named. In cells and extracts the contact can be indirect. Here binding means that the protein was enriched with, or labelled near, the bait; the list need not be complete. Tags and fused reporters may be left off the sequences shown.

Molecular target: T1, FBXL6-Flag (F-box/LRR-repeat protein 6, wild type) (human) (UniProt Q8N531)
T1 sequence: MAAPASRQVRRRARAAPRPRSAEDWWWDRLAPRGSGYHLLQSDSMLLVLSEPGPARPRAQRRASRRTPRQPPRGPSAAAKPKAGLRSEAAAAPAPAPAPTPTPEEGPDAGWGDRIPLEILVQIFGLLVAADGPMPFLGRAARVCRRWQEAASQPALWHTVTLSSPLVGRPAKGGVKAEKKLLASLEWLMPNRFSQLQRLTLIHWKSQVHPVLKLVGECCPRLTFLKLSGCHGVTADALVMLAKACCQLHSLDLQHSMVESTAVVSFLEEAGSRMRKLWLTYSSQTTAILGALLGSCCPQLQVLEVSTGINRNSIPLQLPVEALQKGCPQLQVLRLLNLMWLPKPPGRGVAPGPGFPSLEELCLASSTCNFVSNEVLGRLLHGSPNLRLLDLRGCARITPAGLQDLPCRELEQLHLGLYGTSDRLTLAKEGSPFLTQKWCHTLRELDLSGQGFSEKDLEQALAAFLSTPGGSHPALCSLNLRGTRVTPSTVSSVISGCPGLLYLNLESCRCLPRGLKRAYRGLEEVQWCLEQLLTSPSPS
Assay: affinity purification with mass spectrometry

binding: binds
Substance: HSP90AA1 (from UniProt P07900 1-732)
